Values quoted from earlier work in US20080138350A1, “PROCESS FOR USE OF FLUOROQUINOLONES TO REDUCE OR MODULATE INFLAMMATION DUE TO EYE DISEASE OR OPHTHALMIC SURGERY” (priority 2006, published 2008).
For at least one compound, name, drawing or mass did not settle the structure.

Tested on: most pathogens known to cause infectious endophthalmitis

COc1c(N2C[C@@H]3CCCN[C@@H]3C2)c(F)cc2c(=O)c(C(=O)O)cn(C3CC3)c12 [moxifloxacin]
in vitro MICs: less than 0.20 μg/mL
